The values below come from US20230140224A1 (APRILBIO, published 2023).

Amino acid sequences for entries named in this document (tags omitted). Residues count along the entry.
UniProt P49064, residues 25-608: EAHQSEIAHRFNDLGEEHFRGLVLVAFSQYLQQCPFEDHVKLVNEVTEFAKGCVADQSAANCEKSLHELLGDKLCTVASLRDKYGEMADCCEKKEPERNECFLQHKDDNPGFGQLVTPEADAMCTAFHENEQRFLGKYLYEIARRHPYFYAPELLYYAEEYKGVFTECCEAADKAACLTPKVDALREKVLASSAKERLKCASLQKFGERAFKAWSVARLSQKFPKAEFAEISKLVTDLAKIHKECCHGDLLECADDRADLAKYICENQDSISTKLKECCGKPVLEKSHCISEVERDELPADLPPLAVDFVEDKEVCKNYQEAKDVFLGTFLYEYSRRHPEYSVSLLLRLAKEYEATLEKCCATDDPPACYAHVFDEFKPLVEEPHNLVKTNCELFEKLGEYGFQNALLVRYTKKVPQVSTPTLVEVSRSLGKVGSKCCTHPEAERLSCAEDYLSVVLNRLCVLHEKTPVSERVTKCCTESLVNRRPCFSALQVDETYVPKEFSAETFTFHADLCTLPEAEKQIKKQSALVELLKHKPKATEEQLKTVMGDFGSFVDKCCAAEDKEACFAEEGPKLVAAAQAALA

The test addresses feline serum albumin (feline) (UniProt P49064). The experiment in a line: ELISA, albumin coated on plate, Fab in solution.

No constants are given. Whether binding was seen depends on the method and setting. Some results given as binding are weak or reduced against the parent protein; the word gives no strength.

B1: FL335 Fab antibody fragment (Fab, V domains shown)
VH: QVQLVQSGGGPVKPGGSLRLSCAASGFMFRAYSMNWVRQAPGKGLEWVSSISSSGRYIHYADSVKGRFTISRDNAKNSLYLQMNSLRAEDTAVYYCARETVMAGKALDYWGQGTLVTVSS
VL: DIVLTQSPGTLSLSPGETATLSCRASQSVGSNLAWYQQKPGQAPRLLIYGASTGATGVPARFSGSRSGTDFTLTITSLQPEDFATYYCQQYYSFLAKTFGQGTQLEIKR
notes: also called FL355 Fab antibody fragment; feline chimeric antibody fragment
For B1, the binding entry is on record as “binds”.
